# Measured values from the supplement of paper PMC12067093, “Discovery and optimisation of a covalent ligand for TRIM25 and its application to targeted protein ubiquitination” (Chemical Science, 2025).
# Some of the results follow.
# Compound: CC1Cc2ccccc2N1C(=O)C1CCCN(C1)C(=O)CCl (mixture of isomers) [TRIM25 ligand 11 (diastereomer mixture)]
# Test: probe-labelled cysteine peptide fold change vs DMSO (competition) (log2 fold change); higher = less target engagement (more negative = stronger competition)
# Details: 50 µM; THP-1; incubation time: 4 h
# 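Further: competitive chemoproteomic profiling in live THP-1 cells with an iodoacetamide desthiobiotin (IA-DTB) probe, comparing probe-labelled peptide intensities in compound-treated cells against DMSO-treated controls.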
row,Target,probe-labelled cysteine peptide fold change
1,ZBTB7A_O95365_123_LLEIPAVSHVCADLLDR (UniProt O95365),0.0262
2,ZC3HAV1L_Q96H79_169_ILLLQNDPCLLPEVCLLYNK (UniProt Q96H79),0.324
3,XPO5_Q9HAV4_605_HACSSIIK (UniProt Q9HAV4),-0.0203
4,ZC3H7A_Q8IWR0_149_CSLAVPQDEHVIK (UniProt Q8IWR0),-0.053
5,ZADH2_Q8N4Q0_55_DCPVPLPGDGDLLVR (UniProt Q8N4Q0),-0.177
6,ZC3H14_Q6PJT7_628_AFPNCK (UniProt Q6PJT7),-0.201
7,ZBED4_O75132_599_KPTNLGTSCLLR (UniProt O75132),-0.0308
8,XPNPEP3_Q9NQH7_503_EMNDIEQICSQAS (UniProt Q9NQH7),-0.0369
9,ZC3H7B_Q9UGR2_700_FVCGQCWR (UniProt Q9UGR2),0.0759
10,XPO1_O14980_498_NLNTLCWAIGSISGAMHEEDEK (UniProt O14980),0.0431
11,YAE1_Q9NRH1_143_SITPPSHVVDLLDSIEDMDLCHVVPAEK (UniProt Q9NRH1),-0.115
12,ZCCHC3_Q9NUD5_348_THMSGSCTQDR (UniProt Q9NUD5),-0.318
13,XPO7_Q9UIA9_15_ADHVQSLAQLENLCK (UniProt Q9UIA9),-0.0401
14,ZCCHC3_Q9NUD5_385_GHAFAQCPK (UniProt Q9NUD5),-0.0532
15,YDJC_A8MPS7_212_WTDAFVGLSTCGR (UniProt A8MPS7),-0.34
16,XRN2_Q9H0D6_21_KYPSIIVNCVEEK (UniProt Q9H0D6),0.353
17,XPO1_O14980_34_LDINLLDNVVNCLYHGEGAQQR (UniProt O14980),0.0305

# Random excerpt: 2 records from the list
row,Target,probe-labelled cysteine peptide fold change
9,ZC3H7B_Q9UGR2_700_FVCGQCWR (UniProt Q9UGR2),0.0759
14,ZCCHC3_Q9NUD5_385_GHAFAQCPK (UniProt Q9NUD5),-0.0532
